Reference: PMC12040169 (PLOS Biology, 2025)
Some of the results follow.

What follows are molecules tested on T1, CTL2-GFP (C. trachomatis L2/434/Bu, GFP-expressing). Conditions: bulk GFP, single well; 28.5 h, 10 µM; inhibitor.
T1 construct: L2/434/Bu, GFP-expressing
Set-up: species or system HeLa; Intracellular C. trachomatis growth in HeLa cells, bulk GFP fluorescence relative to DMSO

| SMILES | % of control remaining [%] |
| --- | --- |
| CC(=O)NCC1CC(c2ccc(C3=CCN(C(C)=O)CC3)cc2)=NO1 (stereo not drawn) [CBK010245] | 106.466 |
| CN1C(/C=N/O)=C(O)c2ccccc2S1(=O)=O [CBK010098] | 124.235 |
| CN(C)CCNC(=O)c1ccc(COc2ccc(Cl)cc2Cl)cc1 [CBK265878] | 87.3592 |
| Oc1ccc2cc(-c3ccc(OC(F)(F)F)cc3)cnc2n1 [CBK081300] | 118.752 |
| CC(/C=C1\SC(=S)N(CCC(=O)Nc2ccc(O)c(C(=O)O)c2)C1=O)=C\c1ccccc1 [CBK263875] | 104.444 |
| O=C(C1CCCC1)N1CCC(n2nc(-c3cccs3)oc2=O)CC1 [CBK282424] | 117.238 |
| CCN1CCN(c2ccc3nnc(C(C)C)n3n2)CC1 [CBK287974] | 134.615 |
| CN(C)CCCN[C@H]1CC[C@@H](c2ccccc2)CC1 [CBK016465] | 140.049 |
| COc1cc(C)nc(NC(=O)Nc2cccc(Cl)c2)n1 [CBK269828] | 141.522 |
| Cc1cnc2c(C(=O)N3CCCC3c3ccccn3)cnn2c1 (stereo not drawn) [CBK304612] | 128.203 |
| O=C(CC1Sc2ccc(Cl)cc2NC1=O)Nc1ccc([N+](=O)[O-])cc1 (stereo not drawn) [CBK264860] | 141.651 |
| Cc1ccc(C)c(NC(CC(=O)c2ccccc2)C(=O)O)c1 (stereo not drawn) [CBK265485] | 125.716 |
| CCOC(=O)C1(C2CCCCC2)CCN(C(=O)CCC(=O)O)CC1 [CBK136939] | 106.361 |
| Nc1ccc(C(=O)Nc2ccc(Nc3cc(-c4cccnc4)ncn3)cc2)cc1 [CBK037823] | 124.196 |
| CC(C)(CO)CNc1cncc(-c2cc3ccccc3o2)n1 [CBK066029] | 154.175 |
| CN(C)CCn1c2c(c3ccccc31)CCCn1nnnc1-2 [CBK267713C] | 135.645 |
| N#Cc1cc2c([nH]c1=S)CCN(Cc1ccccc1)C2 [CBK288378] | 147.391 |
| Cc1csc(-c2ccc(C(=O)N(C)CCN(C)C)c(NCC3CC3)n2)c1 [CBK106279] | 119.58 |
| Cc1nc(C)n(CCC(=O)NC(C)c2cccs2)n1 (stereo not drawn) [CBK282224] | 106.518 |
| Cc1cccc(CC(=O)N2CCCC2c2n[nH]cc2-c2ccncc2)c1 (stereo not drawn) [CBK283447] | 172.135 |
| CCN(Cc1ccncc1)C(=O)NCc1cnc(C)cn1 [CBK155128] | 104.567 |
| COc1ccc(C(C)C)cc1-c1nccnc1NCc1ccc2c(c1)OCO2 [CBK036683] | 113.971 |
| COCC(=O)N[C@H]1C[C@H]2C(=O)Nc3ccc(-c4ccsc4)cc3C(=O)N2C1 [CBK289360] | 113.097 |
| Cn1c(CN2CCN(c3ccc(C#N)cn3)CC2)nnc1C1CC1 [CBK304781] | 144.135 |
| CCC1CCCCN1C(=O)c1ccc(C(C)(C)C)cc1 (stereo not drawn) [CBK076644] | 98.5122 |
| COc1c(C)cc(S(=O)(=O)NCCN2CCOCC2)c(C)c1C [CBK269893] | 126.035 |

| SMILES | % of control remaining [%] |
| --- | --- |
| COCCNC(=O)c1ccc(-c2cccc(Cl)c2Cl)nc1N(C)C [CBK106057] | 112.501 |
| Clc1cccc(Nc2cncc(-c3cccc4ccccc34)n2)c1 [CBK065764] | 114.588 |
| COc1cc(NC(=O)N(CCC#N)C2CCCCC2)cc(OC)c1OC [CBK156380] | 137.012 |
| Cc1csc(S(=O)(=O)Cc2nnc(C)n2C2CC2)n1 [CBK305494] | 107.845 |
| COc1ccc2nc(N/C(N)=N/C(=O)COc3ccc(Cl)cc3)nc(C)c2c1 [CBK263924] | 52.1766 |
| Cc1cc2ncc3c(n2n1)NC(c1ccc(Cl)cc1Cl)NC3=O (stereo not drawn) [CBK291167] | 126.826 |
| Fc1ccc(CN(Cc2ccco2)C2CCN(c3ccc4c(c3)OCO4)CC2)cc1 [CBK286197] | 108.101 |
| CN(Cc1ccc(O)cc1)C(=O)NC1CCCc2c1cnn2CCO (stereo not drawn) [CBK305354] | 115.562 |
| O=C(O)C1C2CCC(O2)C1C(=O)Nc1ccc(S(=O)(=O)N2CCc3ccccc32)cc1 (stereo not drawn) [CBK268137] | 113.072 |
| Cc1cc(C)nc(Nc2nc3ccccc3[nH]2)n1 [CBK263539] | 123.362 |
| O=C(O)c1ccc(C(=O)c2c3c(=O)n(-c4ccccc4C(=O)O)c(=O)c3cc3c(=O)n(-c4ccccc4C(=O)O)c(=O)c23)cc1 [CBK261183] | 91.7958 |
| CCn1ncc(CN2CCCC(CCC(=O)N3CCN(C)CC3)C2)c1C (stereo not drawn) [CBK306951] | 119.298 |
| CCC(C)NC(=O)Cn1cccc2cc(C3CCCNC3)nc1-2 (stereo not drawn) [CBK285087] | 115.825 |
| O=C(NCc1cccnc1)C(=O)Nc1ccc(F)cc1F [CBK269481] | 107.4 |
| O=C(Nc1cccc(CCc2ccccn2)c1)Nc1cccc2ccccc12 [CBK262337] | 118.708 |
| CN(C)c1ccc(-n2ccn(S(=O)(=O)c3ccc(Oc4ccccc4)cc3)c2=O)cc1 [CBK106608] | 176.013 |
| O=C(CCN1CCN(C(c2ccccc2)c2ccccc2)CC1)c1ccccc1 [CBK074788] | 100.762 |
| Cc1ccc(-c2cc(C(=O)NCc3ccc(-c4ccc(C(N)=O)c(C)n4)cc3)no2)cc1 [CBK285644] | 87.7656 |
| Cc1cc(C)n(CC(C)CNC(=O)Cc2csc(-c3ccco3)n2)n1 (stereo not drawn) [CBK305628] | 131.077 |
| COCCn1c(CO)nnc1[C@H]1C[C@@H](NC(=O)c2ccc(C)cc2F)C1 [CBK307296] | 106.11 |
| O=C(CSc1n[nH]c(=S)s1)NCCc1ccccc1 [CBK023445] | 110.103 |
| O=C(/C=C/c1c[nH]c2ccccc12)c1ccc(C(=O)/C=C/c2c[nH]c3ccccc23)cc1 [CBK264224] | 138.408 |
| Cc1ccc2cc(S(=O)(=O)Nc3cccc(C(=O)O)c3)ccc2c1 [CBK299812] | 135.616 |
| CC1CCc2c(sc(NC(=O)c3cccs3)c2C#N)C1 (stereo not drawn) [CBK304625] | 107.29 |
| COC(=O)CCc1ccc(S(=O)(=O)N2CCCN(Cc3cc(Cl)cc(Cl)c3)CC2)cc1 [CBK062982] | 106.839 |
| Cc1nc(COc2ccc(Cl)cc2)sc1C(=O)N1CCC1 [CBK306353] | 143.858 |

| SMILES | % of control remaining [%] |
| --- | --- |
| CC(C)NC(=O)c1cc(C2CCN(C(=O)CCCc3ccc(F)cc3)C2)nc2ccccc12 (stereo not drawn) [CBK285921] | 100.844 |
| CCOC(=O)CN1CCC(Oc2cncc(OCc3cccnc3)n2)C1 (stereo not drawn) [CBK084462] | 130.467 |
| Cc1cc(NC(=O)N2CCN(c3ncccc3C#N)CC2)no1 [CBK305901] | 107.251 |
| O=C(NN=C1CCCCCCCCCCC1)c1cc2ccccc2cc1O [CBK261706] | 109.066 |
| CC1CCc2c(sc(NC(=S)NC(=O)c3cc4ccccc4o3)c2C#N)C1 (stereo not drawn) [CBK266319] | 189.472 |
| CCN1CCC2(CC1)CN(CC(N)=O)c1ccccc12 [CBK126798] | 123.833 |
| O=C(O)C(CCCN1CCCC1)(c1ccccc1)c1ccccc1 [CBK022695G] | 164.848 |
| COc1ccc2cc(CNc3ccc(Oc4ccccc4)cc3)c(=O)[nH]c2c1 [CBK286158] | 129.556 |
| COc1ccc(OCC(=O)Nc2ccc3oc(-c4ccc(OC)c(Br)c4)nc3c2)cc1 [CBK263913] | 111.551 |
| O=C(Cn1nnc2ccccc21)NCCN1CCCC1 [CBK267200] | 132.86 |
| CCOC(=O)c1cnc(SCC(=O)N2CCN(c3ccccc3)CC2)nc1N [CBK269159] | 129.173 |
| CCOc1ccccc1NC(=O)CCCN1C(=O)c2ccccc2C1=O [CBK265608] | 94.241 |
| O=C(Nc1cccc(C(F)(F)F)c1)Nc1cc(N2CCNCC2)c2occc2c1 [CBK061746C] | 69.6727 |
| CC1(C)CC(=O)c2sc(NC(=O)CN3C(=O)CCC3=O)nc2C1 [CBK287558] | 129.66 |
| O=C(C[C@@H]1CCNC[C@@H]1Cc1cc(-c2ccccc2)on1)N1CCN(c2ccccc2)CC1 [CBK289148] | 107.866 |
| COc1ccc(CC(=O)NCC(=O)N2CCC3(CC2)NCCc2nc[nH]c23)cc1 [CBK287997] | 87.2937 |
| O=C(O)CC1S/C(=N/N=C/c2ccc(-c3ccc(Cl)cc3)o2)NC1=O (stereo not drawn) [CBK264595] | 96.592 |
| COCOc1ccc(-c2nc(-c3ccco3)cnc2N)cc1 [CBK064108] | 122.239 |
| CCCc1nc(SC)ncc1C(=O)NCc1ccccn1 [CBK291190] | 110.634 |
| CC1CC1C(=O)NCCc1c[nH]c2cccc(C3(O)CCOCC3)c12 (stereo not drawn) [CBK284840] | 112.802 |
| CC1CCc2n[nH]c(C(=O)NCCCc3ccco3)c2C1 (stereo not drawn) [CBK283153] | 120.809 |
| O=S(=O)(N1CCOCC1)N1CCN(CC(O)COc2ccc(-c3ccccc3)cc2)CC1 (stereo not drawn) [CBK269301] | 140.817 |
| CC(C)(C)OC(=O)N1CCN(S(=O)(=O)c2ccc(Br)cc2)CC1 [CBK143623] | 146.192 |
| CC(C)(C)OC(=O)C1(NC(=O)Cc2cn3ccccc3n2)CCCC1 [CBK305500] | 126.551 |
| COc1ccccc1-c1cccc(C2CCCN(C(=O)Cc3c[nH]c4ccccc34)C2)n1 (stereo not drawn) [CBK286143] | 102.449 |
| CCOc1ccc(C(=O)NC(=S)Nc2cccc(C(=O)O)c2C)cc1Br [CBK265100] | 119.579 |

Part of the list above, bar-delimited.
SMILES | % of control remaining [%]
CC(C)(C)OC(=O)N1CCN(S(=O)(=O)c2ccc(Br)cc2)CC1 [CBK143623] | 146.192
CC(C)(C)OC(=O)C1(NC(=O)Cc2cn3ccccc3n2)CCCC1 [CBK305500] | 126.551
COc1ccccc1-c1cccc(C2CCCN(C(=O)Cc3c[nH]c4ccccc34)C2)n1 (stereo not drawn) [CBK286143] | 102.449
CCOc1ccc(C(=O)NC(=S)Nc2cccc(C(=O)O)c2C)cc1Br [CBK265100] | 119.579
